Measurements as given in PubChem BioAssay AID504847 (National Center for Advancing Translational Sciences (NCATS), 2011).
Out of some 400,000 compounds screened, about 3,700 (0.93%) were called active. Inconclusive results, whose numbers are uncertain, are shown with a selection of clear calls. The call rests on the fitted dose curve; in most records, active means well fitted inhibition curve with a large enough effect; inconclusive means small, poorly fitted or top-dose-only effect, or another doubt; inactive means no such curve, though single readings can be large or run the other way. A potency beside an inconclusive call is a rough fit, not a confirmed value.

Protein sequences, listed by entry. Tags and fused reporters are not part of them. Lines headed by an entry give the natural chain unless they say otherwise; changes in a name come on top.
UniProt P11473: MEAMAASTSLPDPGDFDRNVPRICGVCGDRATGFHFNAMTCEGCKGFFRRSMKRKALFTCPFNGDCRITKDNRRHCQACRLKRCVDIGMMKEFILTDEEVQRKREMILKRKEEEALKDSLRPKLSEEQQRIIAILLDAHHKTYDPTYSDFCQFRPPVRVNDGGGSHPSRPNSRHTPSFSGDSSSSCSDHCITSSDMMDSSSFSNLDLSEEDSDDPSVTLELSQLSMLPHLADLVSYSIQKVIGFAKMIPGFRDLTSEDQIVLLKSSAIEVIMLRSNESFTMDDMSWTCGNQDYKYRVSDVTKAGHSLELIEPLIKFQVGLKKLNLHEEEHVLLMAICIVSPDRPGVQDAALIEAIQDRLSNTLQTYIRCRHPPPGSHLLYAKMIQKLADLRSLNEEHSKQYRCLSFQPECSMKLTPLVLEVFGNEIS

These molecules were tested against Vitamin D3 receptor (Homo sapiens) (UniProt P11473) (assay: Inhibitors of the vitamin D receptor (VDR): qHTS). Details: VDR-SRC2-3 peptide fluorescence polarization, 2 h; max response, negative = inhibition: stronger effect = lower value.
How it was run: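 Compounds are added to VDR with labelled SRC2-3 coactivator peptide and held 2 h at room temperature. Inhibition of the VDR–peptide interaction is then read as a change in fluorescence polarization.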
On the % scale 0 is the no-effect control and ±100 the full control effect; potency means the concentration at half of the fitted maximal effect.

| SMILES | Potency | max response, negative = inhibition |
| --- | --- | --- |
| Cc1cccc(NC(=S)NCCc2ccc(S(N)(=O)=O)cc2)c1C | inconclusive: 89.1 µM [inhibitor, single point] | – |
| Cc1ccc(NC(=S)NNc2ccc([N+](=O)[O-])cc2S(=O)(=O)Nc2ccccc2C(=O)O)cc1C | active: 39.8 µM | – |
| CC1CCN(c2ccc(NC(=O)C3CCCN3S(=O)(=O)c3ccc(F)cc3)cc2)CC1 (stereo not drawn) | inconclusive: 10 µM [inhibitor, partial curve, poor fit] | – |
| COc1ccc(OC)c(Nc2ncnc3c2nc2n3CCCC2)c1 | – | inactive: 15.1% |
| CN1C(=O)/C(=C\c2ccc(N(C)C)cc2)OC1=S | inconclusive: 39.8 µM [inhibitor, partial curve, poor fit] | – |
| CSc1nsc(SC)c1C(=O)OCC(F)(F)F | inconclusive: 14.1 µM [inhibitor, partial curve, poor fit] | – |
| COc1ccccc1-c1nc(Nc2ccncc2)c2ccccc2n1 | inconclusive: 89.1 µM [inhibitor, single point] | – |
| CC(=O)NCCc1cnc[nH]1 | – | inactive: -13.3% |
| Cc1cccc(OCC(=O)N/N=C/C=C/c2ccco2)c1 | inconclusive: 89.1 µM [inhibitor, single point] | – |
| CSc1ccc(CCNC(=O)C(C)n2nc(C)c3sc4ccccc4c3c2=O)cc1 (stereo not drawn) | – | inactive: 9.42% |
| COc1ccccc1N1C(=O)C=C(Sc2nc(C)cc(C)n2)C1=O | inconclusive: 22.4 µM [inhibitor, full curve, poor fit] | – |
| COc1cc2[nH]c(=S)nc(Nc3ccc(NC(C)=O)cc3)c2cc1OC | inconclusive: 35.5 µM [inhibitor, single point] | – |
| Cc1c(CCCC(=O)O)sc(N)c1C(=O)c1cccc(C(F)(F)F)c1 | active: 89.1 µM | – |
| COc1cccc(C(c2c(C)[nH]n(-c3ccccc3)c2=O)c2c(C)[nH]n(-c3ccccc3)c2=O)c1O | inconclusive: 56.2 µM [inhibitor, partial curve, poor fit] | – |
| Nc1c(C(=O)Nc2ccc3c(c2)OCCO3)nnn1CCc1ccccc1 | inconclusive: 12.6 µM [inhibitor, partial curve, poor fit] | – |
| O=C1c2cccc(NCCNCCO)c2C(=O)c2cccc(NCCNCCO)c21 | inconclusive: 100 µM [inhibitor, single point] | – |
| Cc1noc(C)c1C(=O)OCC(=O)Nc1c(F)cccc1F | active: 50.1 µM | – |
| O=C(CS(=O)c1ccc(C(F)(F)F)cc1[N+](=O)[O-])Oc1ccc(Cl)cc1 (stereo not drawn) | active: 50.1 µM | – |
| Cc1ccc([N+](=O)[O-])cc1NC(=O)CSc1nncc2ccccc12 | inconclusive: 89.1 µM [inhibitor, partial curve] | – |
| CCCCN1C(=O)/C(=C(/C#N)C(N)=O)c2ccccc21 | active: 50.1 µM | – |
| CCN1C(=NCc2cc(OC)c(OC)c(OC)c2)N[C@@H](c2ccccc2)C(C(=O)OC)=C1C | inconclusive: 70.8 µM [inhibitor, partial curve] | – |
| COc1ccc(C(=O)CCN2CCN(c3ccccc3OC)CC2)cc1 | inconclusive: 63.1 µM [inhibitor, partial curve, poor fit] | – |
| COc1ccccc1NC(=O)c1cc[n+](C)cc1 | – | inactive: 7.01% |

| SMILES | Potency | max response, negative = inhibition |
| --- | --- | --- |
| COc1ccc(C(=O)Nc2cccc(C(=O)N3CCN(C)CC3)c2)cc1 | inconclusive: 3.98 µM [inhibitor, partial curve, poor fit] | – |
| CCOc1ccc(Cc2c(C)[nH]c3ccc(C(=O)O)cc3c2=S)cc1 | – | inactive: -12.7% |
| COc1c(O)cccc1[C@@H](O)C1CCN(CCc2ccc(F)cc2)CC1 | inconclusive: 56.2 µM [inhibitor, partial curve, poor fit] | – |
| O=C1CN(C(=O)c2cccc(Br)c2)c2ccccc2N1 | – | inactive: 0.735% |
| COCCNCC(=O)C12CC3CC(CC(C3)C1)C2 | inconclusive: 56.2 µM [inhibitor, partial curve, poor fit] | – |
| CC(C(=O)Nc1ccc(O)c(C(=O)O)c1)N1C(=O)/C(=C/c2cccs2)SC1=S (stereo not drawn) | inconclusive: 89.1 µM [inhibitor, single point] | – |
| COc1ccc(OC)c(NC(=O)c2cccnc2)c1 | inconclusive: 56.2 µM [inhibitor, partial curve, poor fit] | – |
| Cc1ccc(-c2csc(NC(=O)C3CC(=O)N(c4ccc5c(c4)OCCO5)C3)n2)o1 (stereo not drawn) | inconclusive: 56.2 µM [inhibitor, partial curve, poor fit] | – |
| COCCCN(C(=O)c1ccccc1)c1nc(-c2ccc(OC)cc2)cs1 | – | inactive: -22.5% |
| NC1=NC(=O)/C(=C/c2cn(Cc3ccccc3)c3ccccc23)S1 | inconclusive: 56.2 µM [inhibitor, partial curve, poor fit] | – |
| COc1ccc(NC2CCCN(C(=O)COc3ccc(C)cc3)C2)cc1 (stereo not drawn) | – | inactive: 12.9% |
| CCC1CN(C(=O)N2CCC(C(=O)NCCc3ccccc3Cl)CC2)c2cc(C)ccc2O1 (stereo not drawn) | – | inactive: 5.54% |
| O=C1CC(NNc2ccccc2)C(=O)N1c1ccc(N2CCCCC2)cc1 (stereo not drawn) | inconclusive: 89.1 µM [inhibitor, single point] | – |
| C=C(C)C(=O)/C=C/c1ccc(C(F)(F)F)cc1 | – | inactive: 2.55% |
| CCCCC(=O)NNC(=S)NC(=O)c1ccc([N+](=O)[O-])cc1 | inconclusive: 70.8 µM [inhibitor, single point] | – |
| Oc1ccc2ccccc2c1CN1CCOCC1 | inconclusive: 100 µM [inhibitor, partial curve, poor fit] | – |
| O=C(Nc1cccc2nsnc12)c1ccc(-c2ccc(Br)cc2)o1 | inconclusive: 89.1 µM [inhibitor, single point] | – |
| CC(C)=CCc1c(-c2ccc(O)cc2O)oc2cc3c(c(O)c2c1=O)C=CC(C)(C)O3 | inconclusive: 50.1 µM [inhibitor, partial curve, poor fit] | – |
| CCN(CC)CCNC(=O)c1cc(-c2ccco2)nc2ccccc12 | – | inactive: -5.23% |
| CCC(CO)Oc1cc(NCc2cccnc2)c2ncn(C(C)C)c2c1 (stereo not drawn) | inconclusive: 70.8 µM [inhibitor, partial curve, poor fit] | – |
| CCN1C(=O)/C(=C\c2ccncc2)SC1=S | inconclusive: 70.8 µM [inhibitor, partial curve, poor fit] | – |
| Cc1ccc(/C=C2\CCCC3=C2NC(=S)NC3c2ccc(C)cc2)cc1 (stereo not drawn) | inconclusive: 56.2 µM [inhibitor, partial curve, poor fit] | – |
| O=C(c1ccccc1)c1ccc(C(=O)N2CCN(c3ccc(F)cc3)CC2)o1 | – | inactive: 3.62% |

| SMILES | Potency | max response, negative = inhibition |
| --- | --- | --- |
| O=C(Cc1ccc(Cl)cc1Cl)Nc1cccc(S(=O)(=O)Nc2ccccc2F)c1 | inconclusive: 20 µM [inhibitor, full curve, poor fit] | – |
| Cc1cc(C)cc(N(CCC(=O)O)S(=O)(=O)c2ccc(Cl)cc2)c1 | – | inactive: 14.8% |
| CC1(C)C(=O)N(CC(=O)Nc2cccc(F)c2)c2ccc(S(=O)(=O)N3CCCCC3)cc21 | – | inactive: -0.544% |
| CCN(Cc1ccc(OC)c(F)c1)C(=O)/C=C/c1ccc(S(=O)(=O)N2CCOCC2)cc1 | inconclusive: 7.08 µM [inhibitor, partial curve, poor fit] | – |
| CCCCN(C(=O)Cn1ncc(Cl)c(Cl)c1=O)c1c(N)n(CC(C)C)c(=O)[nH]c1=O | inconclusive: 25.1 µM [inhibitor, single point] | – |
| O=C(c1cccnc1)N(c1cc2sc(=O)oc2c2ccccc12)S(=O)(=O)c1ccccc1 | active: 25.1 µM | – |
| CCCn1c(SCc2nc3ccccc3s2)n[nH]c1=O | – | inactive: 7.7% |
| Cc1cccc(OCCCC(=O)NC(C)C)c1 | inconclusive: 100 µM [inhibitor, partial curve, poor fit] | – |
| Cc1ccc(NC(=O)CN(C)Cc2c(O)ccc3ccccc23)cc1 | active: 79.4 µM | – |
| CCOC(=O)C1CCN(S(=O)(=O)c2cc3c4c(c2)CC(=O)N4CCC3)CC1 | – | inactive: 20.3% |
| CSc1cnn(Cc2ccccc2)c(=O)c1SCc1ccccc1 | inconclusive: 35.5 µM [inhibitor, partial curve] | – |
| COC(=O)c1ccccc1N=C(SC)N(C)C | inconclusive: 44.7 µM [inhibitor, partial curve] | – |
| N#C/C(=C\c1ccc(O)c(O)c1)C(=O)NCc1ccccc1 | inconclusive: 56.2 µM [inhibitor, partial curve] | – |
| O=C(O)C1Nc2c(C(=O)N3CCOCC3)cccc2C2C=CCC12 (stereo not drawn) | inconclusive: 100 µM [inhibitor, single point] | – |
| NC(=O)CC[C@H](NC(=O)c1ccc(F)cc1)C(=O)OCC(=O)NCc1ccc(F)cc1 | active: 70.8 µM | – |
| O=C1ON=C(c2ccccc2)/C1=C/c1ccc(O)cc1 | active: 35.5 µM | – |
| CC1=CC(C)(C)NC(=S)N1c1cccc2ccccc12 | – | inactive: 10.6% |
| COc1ccc(-c2cc(=O)oc3cc(OC(C)C(=O)NCc4ccccn4)ccc23)cc1 (stereo not drawn) | – | inactive: -19.5% |
| COc1ccc(-n2c(=O)c(-c3cn(C)c4ccccc34)nc3cnc(N4CCNCC4)nc32)cc1 | – | inactive: 0.102% |
| CSC1=N/C(=C\c2ccc(C)s2)C(=O)S1 | inconclusive: 100 µM [inhibitor, single point] | – |
| COc1ccc2[nH]c3c(=O)n(Cc4ccc(C(=O)N5CCCC5)cc4)c(=S)[nH]c3c2c1 | inconclusive: 11.2 µM [inhibitor, partial curve, poor fit] | – |
| Cc1ccc(NC2CCCN(C(=O)c3ccc(F)cc3)C2)cc1C (stereo not drawn) | inconclusive: 31.6 µM [inhibitor, partial curve, poor fit] | – |

Given comma-delimited: part of the list above
SMILES,Potency,"max response, negative = inhibition"
O=C(c1cccnc1)N(c1cc2sc(=O)oc2c2ccccc12)S(=O)(=O)c1ccccc1,active: 25.1 µM,–
CCCn1c(SCc2nc3ccccc3s2)n[nH]c1=O,–,inactive: 7.7%
Cc1cccc(OCCCC(=O)NC(C)C)c1,"inconclusive: 100 µM [inhibitor, partial curve, poor fit]",–
Cc1ccc(NC(=O)CN(C)Cc2c(O)ccc3ccccc23)cc1,active: 79.4 µM,–
